Assay results reported in the supplement of paper PMC12823440, “Inhibitors supercharge kinase turnover through native proteolytic circuits” (Nature, 2025).
The other results are listed elsewhere or left out. The calls rarely recur for the same compound in another form.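 Kinases, fused to nanoluciferase, were expressed in K562 cells; luminescence was measured every 4 h from 2 to 18 h as percent of control (DMSO = 100%, positive control = 0%). A time point is decreased if signal falls significantly (2 sigma). Hits were called by the authors by a rule that is not shown; the count of time points alone does not decide it.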

By UniProt entry, the sequences of proteins in these tests, tags left out. Where a name states a change or a piece, a line headed by the entry shows the natural chain unless it says otherwise.
UniProt Q13546: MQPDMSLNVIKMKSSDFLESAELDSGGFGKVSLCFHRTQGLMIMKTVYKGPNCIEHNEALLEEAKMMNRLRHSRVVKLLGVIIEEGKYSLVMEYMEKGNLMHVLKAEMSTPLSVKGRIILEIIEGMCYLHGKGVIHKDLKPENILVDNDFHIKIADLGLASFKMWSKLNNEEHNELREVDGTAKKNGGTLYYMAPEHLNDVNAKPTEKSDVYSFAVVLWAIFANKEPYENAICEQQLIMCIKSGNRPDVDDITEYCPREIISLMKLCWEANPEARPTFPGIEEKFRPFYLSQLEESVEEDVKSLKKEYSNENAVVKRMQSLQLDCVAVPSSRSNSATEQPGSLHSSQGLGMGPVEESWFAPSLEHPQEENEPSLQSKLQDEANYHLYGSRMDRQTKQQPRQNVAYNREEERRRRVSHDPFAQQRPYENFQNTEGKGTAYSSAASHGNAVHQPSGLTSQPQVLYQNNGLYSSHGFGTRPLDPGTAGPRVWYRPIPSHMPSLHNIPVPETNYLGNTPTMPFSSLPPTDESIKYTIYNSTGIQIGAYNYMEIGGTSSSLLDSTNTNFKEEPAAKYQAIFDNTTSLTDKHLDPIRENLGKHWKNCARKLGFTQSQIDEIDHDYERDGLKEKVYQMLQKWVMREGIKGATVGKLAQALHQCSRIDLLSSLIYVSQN
UniProt Q01974, whole entry: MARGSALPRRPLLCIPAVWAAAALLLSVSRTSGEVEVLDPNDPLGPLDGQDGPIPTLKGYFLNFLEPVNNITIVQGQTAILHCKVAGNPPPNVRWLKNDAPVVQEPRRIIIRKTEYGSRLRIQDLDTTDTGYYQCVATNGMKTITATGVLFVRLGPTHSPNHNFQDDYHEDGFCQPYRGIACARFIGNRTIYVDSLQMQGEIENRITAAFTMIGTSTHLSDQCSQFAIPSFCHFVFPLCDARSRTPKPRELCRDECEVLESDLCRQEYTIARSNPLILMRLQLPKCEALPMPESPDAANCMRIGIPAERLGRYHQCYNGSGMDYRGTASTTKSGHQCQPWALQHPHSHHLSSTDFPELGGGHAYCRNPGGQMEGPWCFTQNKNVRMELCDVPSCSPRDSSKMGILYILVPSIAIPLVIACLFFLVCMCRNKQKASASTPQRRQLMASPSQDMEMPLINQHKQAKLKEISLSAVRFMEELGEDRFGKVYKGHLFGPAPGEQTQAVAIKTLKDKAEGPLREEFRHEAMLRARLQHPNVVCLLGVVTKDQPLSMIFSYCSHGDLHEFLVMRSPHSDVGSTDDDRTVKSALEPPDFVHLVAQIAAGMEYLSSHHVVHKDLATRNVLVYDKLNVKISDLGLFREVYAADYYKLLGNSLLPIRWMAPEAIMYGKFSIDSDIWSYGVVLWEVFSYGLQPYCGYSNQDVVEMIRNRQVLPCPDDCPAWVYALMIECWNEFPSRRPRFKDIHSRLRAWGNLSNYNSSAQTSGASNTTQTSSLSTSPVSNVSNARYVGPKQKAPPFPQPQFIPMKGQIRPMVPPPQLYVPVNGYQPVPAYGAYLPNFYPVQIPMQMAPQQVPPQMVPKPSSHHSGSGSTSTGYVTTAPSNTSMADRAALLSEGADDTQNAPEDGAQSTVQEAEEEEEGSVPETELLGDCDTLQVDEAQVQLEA
UniProt Q9NYA1, whole entry: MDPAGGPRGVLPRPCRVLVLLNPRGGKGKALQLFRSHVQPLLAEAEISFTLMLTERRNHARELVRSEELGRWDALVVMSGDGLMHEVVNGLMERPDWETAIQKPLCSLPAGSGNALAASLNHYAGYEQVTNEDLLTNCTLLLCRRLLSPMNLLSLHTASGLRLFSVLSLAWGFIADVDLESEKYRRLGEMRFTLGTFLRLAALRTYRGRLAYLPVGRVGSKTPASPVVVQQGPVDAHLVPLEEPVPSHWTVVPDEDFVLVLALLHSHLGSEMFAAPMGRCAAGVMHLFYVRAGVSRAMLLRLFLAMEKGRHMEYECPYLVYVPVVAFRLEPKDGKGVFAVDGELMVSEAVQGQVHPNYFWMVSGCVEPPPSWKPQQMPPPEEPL
UniProt Q9Y6E0: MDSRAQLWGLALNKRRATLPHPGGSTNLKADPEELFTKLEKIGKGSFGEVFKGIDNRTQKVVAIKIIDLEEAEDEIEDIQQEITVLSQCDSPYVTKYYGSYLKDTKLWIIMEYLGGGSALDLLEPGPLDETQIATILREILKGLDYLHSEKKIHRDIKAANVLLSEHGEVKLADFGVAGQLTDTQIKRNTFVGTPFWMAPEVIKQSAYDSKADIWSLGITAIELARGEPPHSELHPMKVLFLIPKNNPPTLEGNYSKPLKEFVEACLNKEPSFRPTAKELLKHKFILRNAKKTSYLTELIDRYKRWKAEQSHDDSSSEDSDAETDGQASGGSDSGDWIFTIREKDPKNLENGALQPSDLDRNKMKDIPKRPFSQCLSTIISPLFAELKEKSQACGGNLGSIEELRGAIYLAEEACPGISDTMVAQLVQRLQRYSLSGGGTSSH
UniProt P42680: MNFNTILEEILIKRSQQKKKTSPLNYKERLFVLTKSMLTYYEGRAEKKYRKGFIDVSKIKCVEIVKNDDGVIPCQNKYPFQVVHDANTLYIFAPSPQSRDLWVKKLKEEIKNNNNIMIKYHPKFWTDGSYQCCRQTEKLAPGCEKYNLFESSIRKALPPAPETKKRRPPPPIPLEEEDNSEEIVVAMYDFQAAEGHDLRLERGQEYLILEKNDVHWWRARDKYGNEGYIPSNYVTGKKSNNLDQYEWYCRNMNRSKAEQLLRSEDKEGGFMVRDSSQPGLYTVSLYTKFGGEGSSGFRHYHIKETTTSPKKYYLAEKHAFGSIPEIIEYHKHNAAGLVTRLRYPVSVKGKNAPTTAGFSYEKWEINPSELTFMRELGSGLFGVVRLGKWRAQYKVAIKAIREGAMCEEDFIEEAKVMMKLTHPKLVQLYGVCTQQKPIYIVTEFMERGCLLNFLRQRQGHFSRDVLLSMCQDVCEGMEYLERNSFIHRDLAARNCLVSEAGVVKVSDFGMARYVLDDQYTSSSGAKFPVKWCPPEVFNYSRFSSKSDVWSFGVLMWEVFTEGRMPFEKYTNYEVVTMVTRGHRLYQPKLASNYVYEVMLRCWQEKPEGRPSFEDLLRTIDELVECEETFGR
UniProt Q6PHR2: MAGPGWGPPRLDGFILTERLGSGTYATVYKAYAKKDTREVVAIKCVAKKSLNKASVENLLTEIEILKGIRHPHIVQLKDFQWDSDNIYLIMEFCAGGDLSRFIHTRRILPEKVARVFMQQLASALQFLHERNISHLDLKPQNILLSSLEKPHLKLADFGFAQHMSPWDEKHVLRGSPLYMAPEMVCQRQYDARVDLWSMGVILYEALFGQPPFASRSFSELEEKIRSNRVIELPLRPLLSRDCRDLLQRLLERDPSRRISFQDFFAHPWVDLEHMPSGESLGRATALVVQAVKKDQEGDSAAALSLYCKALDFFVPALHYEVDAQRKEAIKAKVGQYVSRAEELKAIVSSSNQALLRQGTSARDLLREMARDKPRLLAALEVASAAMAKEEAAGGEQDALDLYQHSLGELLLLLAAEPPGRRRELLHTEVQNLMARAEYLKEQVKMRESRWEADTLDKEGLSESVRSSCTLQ
UniProt P07947, whole entry, looked up: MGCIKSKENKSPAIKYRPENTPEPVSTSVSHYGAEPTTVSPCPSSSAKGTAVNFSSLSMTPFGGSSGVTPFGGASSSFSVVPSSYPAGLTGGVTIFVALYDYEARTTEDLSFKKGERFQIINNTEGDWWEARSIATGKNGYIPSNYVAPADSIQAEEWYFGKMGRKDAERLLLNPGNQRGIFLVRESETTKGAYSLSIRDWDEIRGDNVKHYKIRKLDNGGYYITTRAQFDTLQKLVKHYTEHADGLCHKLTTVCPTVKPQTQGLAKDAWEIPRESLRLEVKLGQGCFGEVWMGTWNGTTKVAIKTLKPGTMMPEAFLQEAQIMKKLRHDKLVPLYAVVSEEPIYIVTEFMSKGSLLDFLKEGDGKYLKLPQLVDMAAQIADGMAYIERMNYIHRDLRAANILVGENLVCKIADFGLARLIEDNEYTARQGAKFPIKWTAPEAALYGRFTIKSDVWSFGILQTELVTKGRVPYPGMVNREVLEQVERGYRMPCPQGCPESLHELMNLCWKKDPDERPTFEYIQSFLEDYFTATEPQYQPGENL
UniProt P43403: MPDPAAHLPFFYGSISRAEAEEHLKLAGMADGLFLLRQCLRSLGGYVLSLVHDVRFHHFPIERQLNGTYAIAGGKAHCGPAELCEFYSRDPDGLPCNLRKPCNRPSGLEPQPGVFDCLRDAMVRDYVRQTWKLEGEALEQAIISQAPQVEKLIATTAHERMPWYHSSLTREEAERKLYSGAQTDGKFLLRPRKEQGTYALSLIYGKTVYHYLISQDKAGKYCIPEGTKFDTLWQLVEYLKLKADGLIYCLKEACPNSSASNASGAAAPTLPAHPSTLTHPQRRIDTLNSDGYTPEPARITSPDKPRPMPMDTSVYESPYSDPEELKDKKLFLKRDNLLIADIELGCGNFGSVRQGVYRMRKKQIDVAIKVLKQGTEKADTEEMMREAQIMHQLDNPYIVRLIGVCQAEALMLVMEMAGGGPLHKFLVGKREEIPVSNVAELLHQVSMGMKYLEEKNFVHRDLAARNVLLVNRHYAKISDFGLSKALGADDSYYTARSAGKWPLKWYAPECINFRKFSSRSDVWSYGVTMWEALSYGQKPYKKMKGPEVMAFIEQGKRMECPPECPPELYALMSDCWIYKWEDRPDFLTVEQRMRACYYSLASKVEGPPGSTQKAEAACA
UniProt P00519, whole entry: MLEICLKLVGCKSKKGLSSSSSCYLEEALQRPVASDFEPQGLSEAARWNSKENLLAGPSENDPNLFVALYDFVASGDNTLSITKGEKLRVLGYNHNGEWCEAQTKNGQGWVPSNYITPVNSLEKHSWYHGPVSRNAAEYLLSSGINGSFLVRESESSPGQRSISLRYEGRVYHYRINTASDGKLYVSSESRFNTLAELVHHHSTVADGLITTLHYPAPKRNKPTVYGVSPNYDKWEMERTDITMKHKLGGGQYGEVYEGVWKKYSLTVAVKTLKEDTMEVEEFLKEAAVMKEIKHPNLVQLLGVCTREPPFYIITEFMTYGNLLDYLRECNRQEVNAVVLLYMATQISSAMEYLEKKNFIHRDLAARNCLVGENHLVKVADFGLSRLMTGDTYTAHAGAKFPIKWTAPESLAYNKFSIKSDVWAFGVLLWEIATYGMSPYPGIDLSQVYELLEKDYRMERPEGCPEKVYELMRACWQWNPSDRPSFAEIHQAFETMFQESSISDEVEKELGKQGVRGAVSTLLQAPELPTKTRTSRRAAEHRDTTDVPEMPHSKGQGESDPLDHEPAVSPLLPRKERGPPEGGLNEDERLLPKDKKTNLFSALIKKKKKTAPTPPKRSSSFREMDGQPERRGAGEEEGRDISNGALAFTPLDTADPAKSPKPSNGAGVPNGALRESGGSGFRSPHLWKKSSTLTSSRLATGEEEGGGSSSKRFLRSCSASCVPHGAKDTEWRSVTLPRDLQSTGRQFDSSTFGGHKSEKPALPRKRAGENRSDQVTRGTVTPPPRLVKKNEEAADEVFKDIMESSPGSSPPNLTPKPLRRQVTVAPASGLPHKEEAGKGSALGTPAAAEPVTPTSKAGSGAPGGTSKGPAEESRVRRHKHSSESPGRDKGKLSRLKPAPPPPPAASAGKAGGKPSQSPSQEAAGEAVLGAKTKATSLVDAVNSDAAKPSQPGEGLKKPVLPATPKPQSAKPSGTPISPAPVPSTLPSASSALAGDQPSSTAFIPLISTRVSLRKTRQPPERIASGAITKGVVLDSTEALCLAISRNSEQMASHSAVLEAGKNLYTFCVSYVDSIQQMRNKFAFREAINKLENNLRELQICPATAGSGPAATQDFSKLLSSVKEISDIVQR
UniProt P31749: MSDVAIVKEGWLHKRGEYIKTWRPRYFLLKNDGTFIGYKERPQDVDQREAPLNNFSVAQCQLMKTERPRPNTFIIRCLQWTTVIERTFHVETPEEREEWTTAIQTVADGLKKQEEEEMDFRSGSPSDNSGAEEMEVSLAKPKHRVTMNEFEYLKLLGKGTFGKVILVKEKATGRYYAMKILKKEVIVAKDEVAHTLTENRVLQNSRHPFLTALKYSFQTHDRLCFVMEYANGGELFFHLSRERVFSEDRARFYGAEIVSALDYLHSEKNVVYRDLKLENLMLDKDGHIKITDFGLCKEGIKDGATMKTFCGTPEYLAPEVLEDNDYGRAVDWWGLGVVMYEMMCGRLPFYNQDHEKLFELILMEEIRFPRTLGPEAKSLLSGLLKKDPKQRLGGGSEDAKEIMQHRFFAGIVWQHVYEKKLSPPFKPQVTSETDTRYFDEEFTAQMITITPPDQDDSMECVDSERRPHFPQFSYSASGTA

Columns and labels:
Conditions in all cases: K562; 2-18 h
[1] = molecular target: RET (UniProt P07949); experiment: kinase-Nluc reporter destabilization hit call (1 = scored as downregulated) (binary); higher = compound decreases kinase abundance
[2] = molecular target: RET_M918T (clone: RET_mut) (UniProt P07949); experiment: as above
[3] = molecular target: RIOK1 (UniProt Q9BRS2); experiment: as above
[4] = molecular target: RIPK1 (UniProt Q13546); experiment: as above
[5] = molecular target: RIPK2 (UniProt O43353); experiment: as above
[6] = molecular target: ROR2 (UniProt Q01974); experiment: as above
[7] = molecular target: RPS6KA1 (UniProt Q15418); experiment: as above
[8] = molecular target: SPHK1 (UniProt Q9NYA1); experiment: as above
[9] = molecular target: SRC (UniProt P12931); experiment: as above
[10] = molecular target: STK24 (UniProt Q9Y6E0); experiment: as above
[11] = molecular target: STK38 (UniProt Q15208); experiment: as above
[12] = molecular target: SYK (UniProt P43405); experiment: as above
[13] = molecular target: TEC (UniProt P42680); experiment: as above
[14] = molecular target: TYK2 (UniProt P29597); experiment: as above
[15] = molecular target: ULK3 (UniProt Q6PHR2); experiment: as above
[16] = molecular target: YES1 (UniProt P07947); experiment: as above
[17] = molecular target: ZAK (UniProt Q9NYL2); experiment: as above
[18] = molecular target: ZAP70 (UniProt P43403); experiment: as above
[19] = molecular target: ABL1 (UniProt P00519); experiment: number of time points (of 5) at which kinase-Nluc abundance scored as decreased, DMSO-normalised (count); higher = more persistent destabilization
[20] = molecular target: AKT1 (UniProt P31749); experiment: as above

| Compound | kinase-Nluc reporter destabilization hit call [1] | kinase-Nluc reporter destabilization hit call [2] | kinase-Nluc reporter destabilization hit call [3] | kinase-Nluc reporter destabilization hit call [4] | kinase-Nluc reporter destabilization hit call [5] | kinase-Nluc reporter destabilization hit call [6] | kinase-Nluc reporter destabilization hit call [7] | kinase-Nluc reporter destabilization hit call [8] | kinase-Nluc reporter destabilization hit call [9] | kinase-Nluc reporter destabilization hit call [10] | kinase-Nluc reporter destabilization hit call [11] | kinase-Nluc reporter destabilization hit call [12] | kinase-Nluc reporter destabilization hit call [13] | kinase-Nluc reporter destabilization hit call [14] | kinase-Nluc reporter destabilization hit call [15] | kinase-Nluc reporter destabilization hit call [16] | kinase-Nluc reporter destabilization hit call [17] | kinase-Nluc reporter destabilization hit call [18] | number of time points [19] | number of time points [20] |
| --- | --- | --- | --- | --- | --- | --- | --- | --- | --- | --- | --- | --- | --- | --- | --- | --- | --- | --- | --- | --- |
| COc1cccc(Nc2ncnn3ccc(CN4CC[C@@H](N)[C@H](O)C4)c23)c1 (2.5 µM) | inactive: 0 | inactive: 0 | inactive: 0 | inactive: 0 | inactive: 0 | inactive: 0 | inactive: 0 | inactive: 0 | inactive: 0 | inactive: 0 | inactive: 0 | inactive: 0 | inactive: 0 | inactive: 0 | inactive: 0 | inactive: 0 | inactive: 0 | inactive: 0 | 3 | 0 |
| O=C(N=c1sccn1Cc1ccccc1)c1c[nH]c2ncccc12 (10 µM) | inactive: 0 | inactive: 0 | inactive: 0 | inactive: 0 | inactive: 0 | inactive: 0 | inactive: 0 | inactive: 0 | inactive: 0 | inactive: 0 | inactive: 0 | inactive: 0 | inactive: 0 | inactive: 0 | inactive: 0 | inactive: 0 | inactive: 0 | inactive: 0 | 0 | 0 |
| CC(C)=C/C=C1\O[C@@H]2CC(C)=CC(=O)[C@@H]2[C@]1(C)O [Bisabolangelone] (10 µM) | inactive: 0 | inactive: 0 | inactive: 0 | inactive: 0 | inactive: 0 | inactive: 0 | inactive: 0 | inactive: 0 | inactive: 0 | inactive: 0 | inactive: 0 | inactive: 0 | inactive: 0 | inactive: 0 | inactive: 0 | inactive: 0 | inactive: 0 | inactive: 0 | 0 | 0 |
| O=C(N/N=C/c1ccc([N+](=O)[O-])o1)c1ccc(O)cc1 [Nifuroxazide] (10 µM) | inactive: 0 | inactive: 0 | inactive: 0 | inactive: 0 | inactive: 0 | inactive: 0 | inactive: 0 | inactive: 0 | inactive: 0 | inactive: 0 | inactive: 0 | inactive: 0 | inactive: 0 | inactive: 0 | inactive: 0 | inactive: 0 | inactive: 0 | inactive: 0 | 3 | 0 |
| CN(C)CCCNc1ccn2ncc(-c3ccc4c(c3)OCO4)c2n1 (10 µM) | inactive: 0 | inactive: 0 | inactive: 0 | inactive: 0 | inactive: 0 | inactive: 0 | inactive: 0 | inactive: 0 | inactive: 0 | inactive: 0 | inactive: 0 | inactive: 0 | inactive: 0 | inactive: 0 | inactive: 0 | inactive: 0 | inactive: 0 | inactive: 0 | 0 | 0 |
| CC(C)(O)c1cc2nc(-c3cnc(N)nc3)nc(N3CCOCC3)c2s1 (2.5 µM) | inactive: 0 | inactive: 0 | inactive: 0 | inactive: 0 | inactive: 0 | inactive: 0 | inactive: 0 | inactive: 0 | inactive: 0 | inactive: 0 | inactive: 0 | inactive: 0 | inactive: 0 | inactive: 0 | inactive: 0 | inactive: 0 | inactive: 0 | inactive: 0 | 5 | 0 |
| CCc1nc(C(N)=O)c(Nc2ccc(N3CCC(N4CCN(C)CC4)CC3)c(OC)c2)nc1NC1CCC(OC)CC1 (stereo not given) [EML4-ALK kinase inhibitor 1] (2.5 µM) | inactive: 0 | inactive: 0 | inactive: 0 | inactive: 0 | inactive: 0 | inactive: 0 | inactive: 0 | inactive: 0 | inactive: 0 | inactive: 0 | inactive: 0 | inactive: 0 | inactive: 0 | inactive: 0 | inactive: 0 | inactive: 0 | inactive: 0 | inactive: 0 | 0 | 0 |
| COc1cc(OC)c(/C=C/S(=O)(=O)Cc2ccc(OC)c(NCC(=O)O)c2)c(OC)c1 [Rigosertib (sodium)] (10 µM) | inactive: 0 | inactive: 0 | inactive: 0 | inactive: 0 | inactive: 0 | inactive: 0 | inactive: 0 | inactive: 0 | inactive: 0 | inactive: 0 | inactive: 0 | inactive: 0 | inactive: 0 | inactive: 0 | inactive: 0 | inactive: 0 | inactive: 0 | inactive: 0 | 2 | 0 |
